Assay results taken from publication doi:10.1101/2021.04.11.438637.
Where two headings read alike, the source gives them in different places. These are yes or no findings as the source states them, for the method shown. For part of these data: Binding can be weak; no strength is given. For part of these data: Where a sequence is shown, tags or fusion partners need not be part of it. For part of these data: Binding seen in cells or lysates may run through a third protein. Blank lines part the entries; values can stand above or below the molecule they belong to.

By UniProt entry, the sequences of proteins in these tests, tags left out. Where a name states a change or a piece, a line headed by the entry shows the natural chain unless it says otherwise.
UniProt O04567: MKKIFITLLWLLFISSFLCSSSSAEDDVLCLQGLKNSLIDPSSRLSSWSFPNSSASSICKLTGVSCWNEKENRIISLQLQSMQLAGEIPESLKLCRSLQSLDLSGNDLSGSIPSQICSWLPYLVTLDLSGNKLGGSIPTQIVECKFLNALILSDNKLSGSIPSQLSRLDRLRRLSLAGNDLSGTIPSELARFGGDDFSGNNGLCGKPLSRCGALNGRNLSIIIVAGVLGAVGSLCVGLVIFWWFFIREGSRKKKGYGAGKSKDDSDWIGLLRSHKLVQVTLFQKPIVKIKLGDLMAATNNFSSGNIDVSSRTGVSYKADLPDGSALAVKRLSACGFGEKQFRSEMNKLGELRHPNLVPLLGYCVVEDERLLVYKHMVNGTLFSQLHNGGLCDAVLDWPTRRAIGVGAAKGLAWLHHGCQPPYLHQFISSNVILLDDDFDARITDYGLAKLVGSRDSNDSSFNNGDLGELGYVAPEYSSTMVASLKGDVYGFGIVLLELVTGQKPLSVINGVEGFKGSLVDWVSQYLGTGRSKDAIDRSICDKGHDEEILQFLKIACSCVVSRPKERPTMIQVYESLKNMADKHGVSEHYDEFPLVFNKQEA
UniProt Q9FKN7: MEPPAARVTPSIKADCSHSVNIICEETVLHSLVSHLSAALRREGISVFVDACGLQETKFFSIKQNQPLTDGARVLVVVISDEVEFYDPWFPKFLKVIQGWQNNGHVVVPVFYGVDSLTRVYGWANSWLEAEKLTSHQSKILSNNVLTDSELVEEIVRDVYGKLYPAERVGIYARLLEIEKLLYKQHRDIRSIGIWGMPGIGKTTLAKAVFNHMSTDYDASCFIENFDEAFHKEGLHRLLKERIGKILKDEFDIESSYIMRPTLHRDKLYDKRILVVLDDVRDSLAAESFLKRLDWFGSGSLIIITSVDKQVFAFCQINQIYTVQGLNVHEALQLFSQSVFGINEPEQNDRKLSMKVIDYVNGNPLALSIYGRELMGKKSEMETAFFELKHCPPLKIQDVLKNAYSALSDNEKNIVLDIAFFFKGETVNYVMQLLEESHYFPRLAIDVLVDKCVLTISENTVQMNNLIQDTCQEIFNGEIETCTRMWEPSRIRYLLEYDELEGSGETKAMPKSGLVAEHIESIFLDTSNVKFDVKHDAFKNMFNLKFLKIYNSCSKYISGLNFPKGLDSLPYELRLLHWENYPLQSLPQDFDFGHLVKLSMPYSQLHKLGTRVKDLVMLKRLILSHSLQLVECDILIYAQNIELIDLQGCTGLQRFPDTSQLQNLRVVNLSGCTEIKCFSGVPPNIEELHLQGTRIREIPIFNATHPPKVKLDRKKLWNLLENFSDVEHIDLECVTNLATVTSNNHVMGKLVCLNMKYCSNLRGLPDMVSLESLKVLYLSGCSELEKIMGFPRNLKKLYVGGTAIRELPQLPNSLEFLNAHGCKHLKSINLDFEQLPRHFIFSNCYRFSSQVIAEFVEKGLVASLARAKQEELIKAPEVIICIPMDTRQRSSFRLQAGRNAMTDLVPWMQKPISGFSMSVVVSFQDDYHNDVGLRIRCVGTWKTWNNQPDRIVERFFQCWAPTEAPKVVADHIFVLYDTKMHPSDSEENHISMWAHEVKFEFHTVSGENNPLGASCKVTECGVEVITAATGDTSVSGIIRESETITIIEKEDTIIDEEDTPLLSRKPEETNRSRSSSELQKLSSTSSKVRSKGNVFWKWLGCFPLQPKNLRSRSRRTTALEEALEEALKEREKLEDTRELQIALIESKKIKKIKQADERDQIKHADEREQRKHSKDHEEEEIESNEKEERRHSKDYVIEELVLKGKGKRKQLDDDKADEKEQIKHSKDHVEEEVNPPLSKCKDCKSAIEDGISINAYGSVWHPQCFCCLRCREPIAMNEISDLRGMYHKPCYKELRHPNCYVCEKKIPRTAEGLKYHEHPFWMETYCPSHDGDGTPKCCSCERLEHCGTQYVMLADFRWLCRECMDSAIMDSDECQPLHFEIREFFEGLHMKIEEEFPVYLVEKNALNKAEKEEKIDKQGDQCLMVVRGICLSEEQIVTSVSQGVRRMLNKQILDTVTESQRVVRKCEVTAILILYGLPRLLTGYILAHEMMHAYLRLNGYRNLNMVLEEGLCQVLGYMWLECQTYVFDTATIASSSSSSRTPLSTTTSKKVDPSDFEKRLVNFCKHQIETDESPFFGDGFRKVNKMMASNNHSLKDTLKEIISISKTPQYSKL

How the values were obtained:
[1] = target: BIR3-Nluc (Arabidopsis thaliana) (UniProt O04567); experiment: split reporter
[2] = target: BIR3, split-ubiquitin fusion (Arabidopsis thaliana) (UniProt O04567); experiment: two-hybrid
[3] = target: BIR3-Nluc (Arabidopsis thaliana) (UniProt O04567); experiment: split reporter; remark: listed apart in the source
[4] = target: BIR1-eGFP (Arabidopsis thaliana); experiment: co-IP
[5] = target: BIR3-eGFP (Arabidopsis thaliana) (UniProt O04567); experiment: co-IP
[6] = target: BIR3, split-ubiquitin fusion (Arabidopsis thaliana) (UniProt O04567); experiment: two-hybrid; remark: listed apart in the source

- binding [3]: binds
B1: CSA1-Cluc (protein, UniProt F4KIF3 1-1197)
chain: MTSSSSWVKTDGETPQDQVFINFRGVELRKNFVSHLEKGLKRKGINAFIDTDEEMGQELSVLLERIEGSRIALAIFSPRYTESKWCLKELAKMKERTEQKELVVIPIFYKVQPVTVKELKGDFGDKFRELVKSTDKKTKKEWKEALQYVPFLTGIVLDEKSDEDEVINIIIRKVKEILNRRSEGPPSKCSALPPQRHQKRHETFWGIELRIKQLEEKLRFGSDETTRTIGVVGMPGIGKTTLATMLYEKWNDRFLRHVLIRDIHEASEEDGLNYLATKFLQGLLKVENANIESVQAAHEAYKDQLLETKVLVILDNVSNKDQVDALLGERNWIKKGSKILITTSDKSLMIQSLVNDTYEVPPLSDKDAIKHFIRYAFDGNEGAAPGPGQGNFPKLSKDFVHYTKGNPLALQMLGKELLGKDESHWGLKLNALDQHHNSPPGQSICKMLQRVWEGSYKALSQKEKDALLDIACFRSQDENYVASLLDSDGPSNILEDLVNKFMINIYAGKVDMHDTLYMLSKELGREATATDRKGRHRLWHHHTIIAVLDKNKGGSNIRSIFLDLSDITRKWCFYRHAFAMMRDLRYLKIYSTHCPQECESDIKLNFPEGLLLPLNEVRYLHWLKFPLKEVPQDFNPGNLVDLKLPYSEIERVWEDNKDAPKLKWVNLNHSKKLNTLAGLGKAQNLQELNLEGCTALKEMHVDMENMKFLVFLNLRGCTSLKSLPEIQLISLKTLILSGCSKFKTFQVISDKLEALYLDGTAIKELPCDIGRLQRLVMLNMKGCKKLKRLPDSLGQLKALEELILSGCSKLNEFPETWGNMSRLEILLLDETAIKDMPKILSVRRLCLNKNEKISRLPDLLNKFSQLQWLHLKYCKNLTHVPQLPPNLQYLNVHGCSSLKTVAKPLVCSIPMKHVNSSFIFTNCNELEQAAKEEIVVYAERKCHLLASALKRCDESCVPEILFCTSFPGCEMPSWFSHDAIGSMVEFELPPHWNHNRLSGIALCVVVSFKNCKSHANLIVKFSCEQNNGEGSSSSITWKVGSLIEQDNQEETVESDHVFIGYTNCLDFIKLVKGQGGPKCAPTKASLEFSVRTGTGGEATLEVLKSGFSFVFEPEENRVPSPRNDDVKGKVKINKTPSANGCFKDQAKGNESPKGQWQTYIENSSTNIPSEAHSSQKTGFNGFNGMYSVCVLYEMYSH

- binding [4]: binds
- binding [5]: binds
B2: CSA1-V5 (protein, UniProt F4KIF3 1-1197)
chain: B1 chain

Second part, the molecule before the results:

Molecule: CHS3-Cluc (from UniProt Q9FKN7 1-1613)
- binding [1]: no binding

Molecule: CHS3, split-ubiquitin fusion (from UniProt Q9FKN7 1-1613)
- binding [2]: no binding

B3: CSA1, split-ubiquitin fusion (protein, UniProt F4KIF3 1-1197)
chain: B1 chain
- binding [6]: binds
